1 molecule from patent publication US12251364B2, “Treating non-alcoholic steatohepatitis with cck inhibitors” (priority 2018, dated 2025) can be followed below.

In the data set the test system is mice on 75%-CDE diet (NASH, fibrosis and HCC). Kind of data set: Prevention study: CDE diet-induced NASH in mice, proglumide in drinking water from start of diet. The format is in vivo, mouse (female C57BL/6). How it is done: All mouse studies were performed in an ethical fashion and approved by the Institutional Animal Care and Use Committee, protocol #2016-1193 for animal research by Georgetown University. Female C57BL/6 mice (body weight of >20 g) were obtained from Charles River Laboratory (Germantown, MD). Mice were housed with five per cage with filter-top cages and housing light cycled q12 hrs; on-off. […] The first group received a modified Choline Deficient Diet with 75% Ethionine supplemented diet (CDE) as previously described by […] et al. “A modified choline-deficient, ethionine-supplemented diet reduces morbidity and retains a liver progenitor cell response in mice,” Dis Model Mech 8:1635-1641 (2015). […] The control mice received the same diet with choline. Both diets contained casein as the major source of protein and lard (saturated fat) as the primary source of fat. The diet composition is shown in Table 1 and is very similar to the Western diet (Roberts et al. “Western diet-induced hepatic steatosis and alterations in the liver transcriptome in adult Brown-Norway rats,” BMC Gastroenterol. 15:151 (2015)) where the diet consists of a high fat and high sugar and is often used in experimental animal diets to induce NAFLD. The food intake was measured by weighing food consumed to assure mice were eating equal amounts of food in each group, and animals ate ad libitum. […] Of these (N=5 each) mice were ethically euthanized and livers dissected and analyzed histologically to assess for evidence of NASH at weeks 4 and 8. […] Serum was analyzed by VRL Laboratories (Gaithersburg, MD). The following liver tests were evaluated and the normal range for mouse is shown: Alkaline phosphatase (35-275 u/L); Alanine aminotransferase, ALT (17-129 u/L); Aspartate aminotransferase, AST (46-392 u/L); and total bilirubin (0-0.9 mg/dL). […]

Entries after “also recorded” stand apart in the source; their conditions may differ.

On to `CCCN(CCC)C(=O)C(CCC(=O)O)NC(=O)c1ccccc1` (stereo not drawn) [proglumide], for which the liver weights entry (between any of the treatment groups, at termination) was “no difference”. Also, the food intake entry (proglumide-treated vs untreated water, over 12 weeks) was “slightly more food; also recorded: ate more food”. For the same molecule, where the note is “week 18”, the “final body weight of CDE/Reg mice compared to CDE mice that received proglumide for 18 weeks” value is “significantly lower”.
